From US11098033B2, “Ku inhibitors and their use” (INDIANA UNIVERSITY RESEARCH AND TECHNOLOGY CORPORATION, priority 2016, dated 2021) come the findings set out here.

Chains of the proteins cited; added tags and fusions are not shown.
UniProt P12956, whole entry: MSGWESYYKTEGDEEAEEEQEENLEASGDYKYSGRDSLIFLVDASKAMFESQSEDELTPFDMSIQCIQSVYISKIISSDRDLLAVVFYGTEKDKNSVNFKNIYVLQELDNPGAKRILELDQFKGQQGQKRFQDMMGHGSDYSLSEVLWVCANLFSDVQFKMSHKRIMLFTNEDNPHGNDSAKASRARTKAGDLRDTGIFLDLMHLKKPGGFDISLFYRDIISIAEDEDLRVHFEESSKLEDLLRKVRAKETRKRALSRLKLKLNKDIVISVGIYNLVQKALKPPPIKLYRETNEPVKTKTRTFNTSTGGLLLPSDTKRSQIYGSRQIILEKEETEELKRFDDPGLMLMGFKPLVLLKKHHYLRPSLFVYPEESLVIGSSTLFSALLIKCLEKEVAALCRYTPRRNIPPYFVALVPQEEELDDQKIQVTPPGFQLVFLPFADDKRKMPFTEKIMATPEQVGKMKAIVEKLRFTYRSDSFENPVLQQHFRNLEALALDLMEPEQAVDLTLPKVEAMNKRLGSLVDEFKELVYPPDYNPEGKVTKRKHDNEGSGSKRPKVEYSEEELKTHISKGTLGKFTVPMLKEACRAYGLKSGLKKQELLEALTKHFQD
UniProt P13010, whole entry: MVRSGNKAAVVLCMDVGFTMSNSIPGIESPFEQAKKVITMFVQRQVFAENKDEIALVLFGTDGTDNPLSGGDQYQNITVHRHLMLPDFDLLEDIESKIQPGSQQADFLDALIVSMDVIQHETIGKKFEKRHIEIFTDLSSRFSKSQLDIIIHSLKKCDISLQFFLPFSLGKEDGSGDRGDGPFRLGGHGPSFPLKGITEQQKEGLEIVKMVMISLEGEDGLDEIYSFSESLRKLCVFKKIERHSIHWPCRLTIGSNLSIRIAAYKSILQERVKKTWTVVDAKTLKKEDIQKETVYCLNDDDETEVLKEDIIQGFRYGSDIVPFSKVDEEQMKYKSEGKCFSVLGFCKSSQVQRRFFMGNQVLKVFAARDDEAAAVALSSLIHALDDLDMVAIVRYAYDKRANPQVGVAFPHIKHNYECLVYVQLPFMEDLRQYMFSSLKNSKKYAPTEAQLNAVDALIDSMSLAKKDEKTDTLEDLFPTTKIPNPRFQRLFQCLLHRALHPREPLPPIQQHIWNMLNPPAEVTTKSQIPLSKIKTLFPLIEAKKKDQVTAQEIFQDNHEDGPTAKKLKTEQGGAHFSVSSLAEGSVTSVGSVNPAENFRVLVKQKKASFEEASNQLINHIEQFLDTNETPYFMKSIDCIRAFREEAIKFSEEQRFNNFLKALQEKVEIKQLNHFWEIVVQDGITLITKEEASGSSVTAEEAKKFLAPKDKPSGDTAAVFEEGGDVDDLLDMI

What is called IC50 is the concentration that gives 50% inhibition.

Structures were worked out from names or drawings and are uncertain.

The assay concerns the target Recombinant human Ku heterodimer (Homo sapiens, UniProt P12956+P13010). Description: Ku-DNA binding assay. The settings on record: Table 2, synthesized derivatives; several values in a cell = separate determinations.
For the molecule `CC1=NN(c2cccc(C(=O)O)c2)C(=O)/C1=C\c1ccc(-c2ccc(Cl)c(C(=O)NCc3ccccc3Cl)c2)o1`, the IC50 is 18 µM.
Under `CC1=NN(c2cccc(C(=O)O)c2)C(=O)C1Cc1ccc(-c2ccc(Cl)c(C(=O)NCc3ccc(F)cc3)c2)s1` (stereo not drawn) stands 6 µM; under `CC1=NN(c2cccc(C(=O)O)c2)C(=O)/C1=C\c1ccc(-c2ccc(Cl)c(C(=O)NCc3ccc(F)cc3)c2)s1`, 25 µM.
Take `CC1=NN(c2ccc(S(N)(=O)=O)cc2)C(=O)/C1=C\c1ccc(-c2ccc(Cl)c(C(=O)NCc3ccc(F)cc3)c2)o1`: the IC50 stood at 25 µM.
Regarding `CC1=NN(c2ccc(C(=O)O)cc2)C(=O)/C1=C\c1ccc(-c2ccc(Cl)c(C(=O)NCc3ccccc3)c2)o1`, the IC50 was determined as 22 µM.
Under `COc1cccc(CNC(=O)c2cc(-c3ccc(/C=C4\C(=O)N(c5ccc(C(=O)O)cc5)N=C4C)o3)ccc2Cl)c1` stands 30 µM.
